At least one peptide structure holds a part that was inferred or is arguable (an end, a ring closure or a residue). Where no end group is shown, it is not given here.
Columns and labels:
elastin = test: RT-PCR expression of extracellular matrix component elastin in NIH3T3 cells; assay type: cell-based, mouse; conditions: 50 µM or 1000 µM peptide, 24 hours, FIG. 2, FIG. 3C
aquaporin-3 (AQP3) = test: RT-PCR expression of skin barrier factor AQP3 in HaCaT cells; assay type: cell-based, human; conditions: 50 µM or 1000 µM peptide, 24 hours, FIG. 4, FIG. 5B
HaCaT cells [1] = test: Skin cell proliferation (MTT, survival rate), keratinocytes; assay type: cell-based, human; conditions: 50 µM or 100 µM peptide, serum-free media, 72 hours, MTT absorbance at 540 nm, FIG. 1B
HaCaT cells [2] = test: Reactive oxygen species increased by ultraviolet rays (DCFH-DA, flow cytometry), keratinocytes; assay type: cell-based, human; conditions: 50 µM or 1000 µM peptide, 15 mJ/cm^2 ultraviolet rays, 24 hours after irradiation, FIG. 7
NIH3T3 cells [3] = test: Reactive oxygen species increased by ultraviolet rays (DCFH-DA, flow cytometry), fibroblasts; assay type: cell-based, mouse; conditions: 50 µM or 1000 µM peptide, 8 J/cm^2 ultraviolet rays, 24 hours after irradiation, FIG. 6
NIH3T3 cells [4] = test: Skin cell proliferation (MTT, survival rate), fibroblasts; assay type: cell-based, mouse; conditions: 50 µM or 100 µM peptide, serum-free media, 72 hours, MTT absorbance at 540 nm, FIG. 1A
collagen type 1 (Col1a1) = test: RT-PCR expression of extracellular matrix component Col1a1 in NIH3T3 cells; assay type: cell-based, mouse; conditions: 50 µM or 1000 µM peptide, 24 hours, FIG. 2, FIG. 3A
fibronectin = test: RT-PCR expression of extracellular matrix component fibronectin in NIH3T3 cells; assay type: cell-based, mouse; conditions: 50 µM or 1000 µM peptide, 24 hours, FIG. 2, FIG. 3B
sirtuin-1 (SIRT-1) = test: RT-PCR expression of skin barrier factor SIRT-1 in HaCaT cells; assay type: cell-based, human; conditions: 50 µM or 1000 µM peptide, 24 hours, FIG. 4, FIG. 5A

DGWNY [SEQ ID NO: 1, DGWNY]
expression of extracellular matrix component elastin (elastin): increased
expression of skin barrier factor AQP3 (aquaporin-3 (AQP3)): increased
proliferation of keratinocytes (HaCaT cells [1]): promoted
level of reactive oxygen species in keratinocytes increased by ultraviolet irradiation (HaCaT cells [2]): reduced
level of reactive oxygen species in fibroblasts increased by ultraviolet irradiation (NIH3T3 cells [3]): reduced
proliferation of fibroblasts (NIH3T3 cells [4]): promoted
expression of extracellular matrix component Col1a1 (collagen type 1 (Col1a1)): increased
expression of extracellular matrix component fibronectin (fibronectin): increased
expression of skin barrier factor SIRT-1 (sirtuin-1 (SIRT-1)): increased

— patent publication EP4620966A1, “PEPTIDE HAVING ACTIVITY OF IMPROVING STATE OF SKIN, AND USE THEREOF” (Caregen Co., Ltd., priority 2022, dated 2025)
